# Test: Caco-2 apical-to-basolateral apparent permeability
# Format: in vitro ADME
# Details: human
compound,measurement,setting,value
CC(C)NCC(O)COc1ccc(CC(N)=O)cc1 (centres unmarked) [atenolol],Papp A→B,"Caco-2, pH 6.5",0.121 ×10⁻⁶ cm/s
same,Papp A→B,"Caco-2, pH 7.4",0.146 ×10⁻⁶ cm/s

# Reference: publication PMC7020312 (CPT: Pharmacometrics & Systems Pharmacology, 2020)
